Test results from PubChem BioAssay AID556 (SRMLSC, 2006).
Some of the results follow. Some of these compounds have results that are not shown, active ones among them.

Test system: diphosphomevalonate decarboxylase (Streptococcus pneumoniae D39)
Test: S. pneumoniae DPM-DC inhibitors, primary screen, biochemical, PK/LDH-coupled NADH fluorescence (AID 556);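 further: kinetic rate of NADH fluorescence loss reporting ADP formed by the decarboxylase; 0% = full reaction rate with carrier and 100% = no-substrate background rate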
Conditions: purified DPM-DC, measured here: pilot screen trials, at 10 µM, stronger effect = higher value

**Q.** `O=C(OC1CN2CCC1CC2)C(CO)(c1ccccc1)c1ccccc1` (stereo unspecified) was tested. Which inhibition did it give?
**A.** 2.5%
